# Data from the supplement of paper PMC8728848.
# This is one part of the list.
# Key:
# Assay in all cases: glycan array binding signal (z-score within array); higher = stronger binding
# Conditions in all cases: glycan notation: IUPAC condensed, linker removed
# [1] = target: Neu5Ac(a2-3)Gal(b1-4)GlcNAc(b1-2)[Neu5Ac(a2-3)Gal(b1-4)GlcNAc(b1-4)]Man(a1-3)[GlcNAc(b1-4)][Neu5Ac(a2-3)Gal(b1-4)GlcNAc(b1-4)Man(a1-6)]Man(b1-4)GlcNAc(b1-4)GlcNAc
# Procedure, shortened: (§1)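 Glycan array binding is given as a within-array Z-score, which can be read as non-binding when negative. The arrays, 3228 of them, came from the Consortium for Functional Glycomics database and were retained only where the protein sequence was available. Z-scores were averaged across arrays of the same protein sequence at different concentrations or buffers and across linkers.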
# [2] = target: Neu5Ac(a2-3)Gal(b1-4)GlcNAc(b1-2)[Neu5Ac(a2-3)Gal(b1-4)GlcNAc(b1-6)]Man(a1-6)[Neu5Ac(a2-3)Gal(b1-4)GlcNAc(b1-2)Man(a1-3)][GlcNAc(b1-4)]Man(b1-4)GlcNAc(b1-4)GlcNAc
# Procedure, shortened: as §1
# [3] = target: Neu5Ac(a2-3)Gal(b1-4)GlcNAc(b1-3)Gal
# Procedure, shortened: as §1
# [4] = target: Neu5Ac(a2-3)Gal(b1-4)GlcNAc(b1-3)Gal(b1-3)GlcNAc
# Procedure, shortened: as §1
# [5] = target: Neu5Ac(a2-3)Gal(b1-4)GlcNAc(b1-3)Gal(b1-4)GlcNAc
# Procedure, shortened: as §1
# [6] = target: Neu5Ac(a2-3)Gal(b1-4)GlcNAc(b1-3)Gal(b1-4)GlcNAc(b1-2)Man(a1-3)[Neu5Ac(a2-3)Gal(b1-4)GlcNAc(b1-3)Gal(b1-4)GlcNAc(b1-2)Man(a1-6)]Man(b1-4)GlcNAc(b1-4)GlcNAc
# Procedure, shortened: as §1
# [7] = target: Neu5Ac(a2-3)Gal(b1-4)GlcNAc(b1-3)Gal(b1-4)GlcNAc(b1-3)Gal(b1-4)GlcNAc
# Procedure, shortened: as §1
# [8] = target: Neu5Ac(a2-3)Gal(b1-4)GlcNAc(b1-3)Gal(b1-4)GlcNAc(b1-3)Gal(b1-4)GlcNAc(b1-2)Man(a1-3)[Neu5Ac(a2-3)Gal(b1-4)GlcNAc(b1-3)Gal(b1-4)GlcNAc(b1-3)Gal(b1-4)GlcNAc(b1-2)Man(a1-6)]GalNAc
# Procedure, shortened: as §1
# [9] = target: Neu5Ac(a2-3)Gal(b1-4)GlcNAc(b1-3)Gal(b1-4)GlcNAc(b1-3)GalNAc
# Procedure, shortened: as §1
# [10] = target: Neu5Ac(a2-3)Gal(b1-4)GlcNAc(b1-3)Gal(b1-4)GlcNAc(b1-3)[Neu5Ac(a2-3)Gal(b1-4)GlcNAc(b1-3)Gal(b1-4)GlcNAc(b1-6)]GalNAc
# Procedure, shortened: as §1
# [11] = target: Neu5Ac(a2-3)Gal(b1-4)GlcNAc(b1-3)Gal(b1-4)GlcNAc(b1-6)[Gal(b1-3)]GalNAc
# Procedure, shortened: as §1
# [12] = target: Neu5Ac(a2-3)Gal(b1-4)GlcNAc(b1-3)Gal(b1-4)[Fuc(a1-3)]GlcNAc
# Procedure, shortened: as §1
# [13] = target: Neu5Ac(a2-3)Gal(b1-4)GlcNAc(b1-3)GalNAc
# Procedure, shortened: as §1
# [14] = target: Neu5Ac(a2-3)Gal(b1-4)GlcNAc(b1-3)[Neu5Ac(a2-3)Gal(b1-4)GlcNAc(b1-6)]GalNAc
# Procedure, shortened: as §1
# [15] = target: Neu5Ac(a2-3)Gal(b1-4)GlcNAc(b1-6)GalNAc
# Procedure, shortened: as §1
# [16] = target: Neu5Ac(a2-3)Gal(b1-4)GlcNAc(b1-6)[Gal(b1-3)]GalNAc
# Procedure, shortened: as §1
# [17] = target: Neu5Ac(a2-3)Gal(b1-4)GlcNAc(b1-6)[Neu5Ac(a2-3)Gal(b1-3)]GalNAc
# Procedure, shortened: as §1
# [18] = target: Neu5Ac(a2-3)Gal(b1-4)GlcNAc6S
# Procedure, shortened: as §1
# [19] = target: Neu5Ac(a2-3)Gal(b1-4)[Fuc(a1-3)]GlcNAc
# Procedure, shortened: as §1
# [20] = target: Neu5Ac(a2-3)Gal(b1-4)[Fuc(a1-3)]GlcNAc(b1-2)Man
# Procedure, shortened: as §1
# [21] = target: Neu5Ac(a2-3)Gal(b1-4)[Fuc(a1-3)]GlcNAc(b1-3)Gal
# Procedure, shortened: as §1
# [22] = target: Neu5Ac(a2-3)Gal(b1-4)[Fuc(a1-3)]GlcNAc(b1-3)Gal(b1-4)GlcNAc
# Procedure, shortened: as §1
# [23] = target: Neu5Ac(a2-3)Gal(b1-4)[Fuc(a1-3)]GlcNAc(b1-3)Gal(b1-4)[Fuc(a1-3)]GlcNAc(b1-3)Gal(b1-4)[Fuc(a1-3)]GlcNAc
# Procedure, shortened: as §1
# [24] = target: Neu5Ac(a2-3)Gal(b1-4)[Fuc(a1-3)]GlcNAc(b1-3)GalNAc
# Procedure, shortened: as §1
# [25] = target: Neu5Ac(a2-3)Gal(b1-4)[Fuc(a1-3)]GlcNAc(b1-6)[Gal(b1-3)]GalNAc
# Procedure, shortened: as §1
# [26] = target: Neu5Ac(a2-3)Gal(b1-4)[Fuc(a1-3)]GlcNAc(b1-6)[Neu5Ac(a2-3)Gal(b1-3)]GalNAc
# Procedure, shortened: as §1
# [27] = target: Neu5Ac(a2-3)Gal(b1-4)[Fuc(a1-3)]GlcNAc6S
# Procedure, shortened: as §1
# [28] = target: Neu5Ac(a2-3)Gal6S(b1-4)GlcNAc
# Procedure, shortened: as §1
# [29] = target: Neu5Ac(a2-3)Gal6S(b1-4)[Fuc(a1-3)]GlcNAc
# Procedure, shortened: as §1
# Neu5Ac(a2-3)GalNAc = target: Neu5Ac(a2-3)GalNAc
# Procedure, shortened: as §1
# [30] = target: Neu5Ac(a2-3)GalNAc(b1-4)GlcNAc
# Procedure, shortened: as §1
# [31] = target: Neu5Ac(a2-3)[GalNAc(b1-4)]Gal(b1-4)Glc
# Procedure, shortened: as §1
# [32] = target: Neu5Ac(a2-3)[GalNAc(b1-4)]Gal(b1-4)GlcNAc
# Procedure, shortened: as §1
# [33] = target: Neu5Ac(a2-3)[GalNAc(b1-4)]Gal(b1-4)GlcNAc(b1-3)GalNAc
# Procedure, shortened: as §1
# [34] = target: Neu5Ac(a2-3)[Neu5Ac(a2-6)]GalNAc
# Procedure, shortened: as §1
# Neu5Ac(a2-6)Gal = target: Neu5Ac(a2-6)Gal
# Procedure, shortened: as §1
# [35] = target: Neu5Ac(a2-6)Gal(b1-3)GlcNAc(b1-3)[Gal(b1-4)GlcNAc(b1-6)]Gal(b1-4)Glc
# Procedure, shortened: as §1
# Neu5Ac(a2-6)Gal(b1-4)Glc = target: Neu5Ac(a2-6)Gal(b1-4)Glc
# Procedure, shortened: as §1
# [36] = target: Neu5Ac(a2-6)Gal(b1-4)GlcNAc
# Procedure, shortened: as §1
# [37] = target: Neu5Ac(a2-6)Gal(b1-4)GlcNAc(b1-2)Man
# Procedure, shortened: as §1
# [38] = target: Neu5Ac(a2-6)Gal(b1-4)GlcNAc(b1-2)Man(a1-3)Man(b1-4)GlcNAc(b1-4)GlcNAc
# Procedure, shortened: as §1
# [39] = target: Neu5Ac(a2-6)Gal(b1-4)GlcNAc(b1-2)Man(a1-3)[Gal(b1-4)GlcNAc(b1-2)Man(a1-6)]Man(b1-4)GlcNAc(b1-4)GlcNAc
# Procedure, shortened: as §1
# [40] = target: Neu5Ac(a2-6)Gal(b1-4)GlcNAc(b1-2)Man(a1-3)[GlcNAc(b1-2)Man(a1-6)]Man(b1-4)GlcNAc(b1-4)GlcNAc
# Procedure, shortened: as §1
# [41] = target: Neu5Ac(a2-6)Gal(b1-4)GlcNAc(b1-2)Man(a1-3)[GlcNAc(b1-2)Man(b1-4)GlcNAc(b1-2)Man(a1-6)]Man(b1-4)GlcNAc(b1-4)GlcNAc
# Procedure, shortened: as §1
# [42] = target: Neu5Ac(a2-6)Gal(b1-4)GlcNAc(b1-2)Man(a1-3)[GlcNAc(b1-4)][Neu5Ac(a2-6)Gal(b1-4)GlcNAc(b1-2)Man(a1-6)]Man(b1-4)GlcNAc(b1-4)GlcNAc
# Procedure, shortened: as §1
# [43] = target: Neu5Ac(a2-6)Gal(b1-4)GlcNAc(b1-2)Man(a1-3)[Man(a1-6)]Man(b1-4)GlcNAc(b1-4)GlcNAc
# Procedure, shortened: as §1
# [44] = target: Neu5Ac(a2-6)Gal(b1-4)GlcNAc(b1-2)Man(a1-3)[Neu5Ac(a2-3)Gal(b1-4)GlcNAc(b1-2)Man(a1-6)]Man(b1-4)GlcNAc(b1-4)GlcNAc
# Procedure, shortened: as §1
# [45] = target: Neu5Ac(a2-6)Gal(b1-4)GlcNAc(b1-2)Man(a1-3)[Neu5Ac(a2-6)Gal(b1-4)GlcNAc(b1-2)Man(a1-6)]Man(b1-4)GlcNAc(b1-4)GlcNAc
# Procedure, shortened: as §1
# [46] = target: Neu5Ac(a2-6)Gal(b1-4)GlcNAc(b1-2)Man(a1-3)[Neu5Ac(a2-6)Gal(b1-4)GlcNAc(b1-2)Man(a1-6)]Man(b1-4)GlcNAc(b1-4)[Fuc(a1-6)]GlcNAc
# Procedure, shortened: as §1
# [47] = target: Neu5Ac(a2-6)Gal(b1-4)GlcNAc(b1-2)Man(a1-6)Man(b1-4)GlcNAc(b1-4)GlcNAc
# Procedure, shortened: as §1
# [48] = target: Neu5Ac(a2-6)Gal(b1-4)GlcNAc(b1-2)Man(a1-6)[Gal(b1-4)GlcNAc(b1-2)Man(a1-3)]Man(b1-4)GlcNAc(b1-4)GlcNAc
# Procedure, shortened: as §1
# [49] = target: Neu5Ac(a2-6)Gal(b1-4)GlcNAc(b1-2)Man(a1-6)[GlcNAc(b1-2)Man(a1-3)]Man(b1-4)GlcNAc(b1-4)GlcNAc
# Procedure, shortened: as §1
# [50] = target: Neu5Ac(a2-6)Gal(b1-4)GlcNAc(b1-2)Man(a1-6)[Man(a1-3)]Man(b1-4)GlcNAc(b1-4)GlcNAc
# Procedure, shortened: as §1
binder,measurement,setting,value
KILRGVCKKIMRTFLRRISKDILTGKK [NK2 (Sus scrofa)],glycan array binding signal (z-score),[1],0.289
same,glycan array binding signal (z-score),[2],0.54
same,glycan array binding signal (z-score),[3],-0.06
same,glycan array binding signal (z-score),[4],-0.837
same,glycan array binding signal (z-score),[5],-0.624
same,glycan array binding signal (z-score),[6],-0.106
same,glycan array binding signal (z-score),[7],-0.106
same,glycan array binding signal (z-score),[8],-0.628
same,glycan array binding signal (z-score),[9],2.37
same,glycan array binding signal (z-score),[10],-1.13
same,glycan array binding signal (z-score),[11],0.263
same,glycan array binding signal (z-score),[12],0.392
same,glycan array binding signal (z-score),[13],-0.302
same,glycan array binding signal (z-score),[14],0.137
same,glycan array binding signal (z-score),[15],1.14
same,glycan array binding signal (z-score),[16],0.125
same,glycan array binding signal (z-score),[17],0.062
same,glycan array binding signal (z-score),[18],1.75
same,glycan array binding signal (z-score),[19],-0.977
same,glycan array binding signal (z-score),[20],0.6
same,glycan array binding signal (z-score),[21],-0.39
same,glycan array binding signal (z-score),[22],0.415
same,glycan array binding signal (z-score),[23],-0.611
same,glycan array binding signal (z-score),[24],-0.396
same,glycan array binding signal (z-score),[25],1.03
same,glycan array binding signal (z-score),[26],0.602
same,glycan array binding signal (z-score),[27],0.787
same,glycan array binding signal (z-score),[28],1.26
same,glycan array binding signal (z-score),[29],-0.104
same,glycan array binding signal (z-score),Neu5Ac(a2-3)GalNAc,-0.422
same,glycan array binding signal (z-score),[30],0.436
same,glycan array binding signal (z-score),[31],-0.813
same,glycan array binding signal (z-score),[32],-0.876
same,glycan array binding signal (z-score),[33],0.715
same,glycan array binding signal (z-score),[34],0.24
same,glycan array binding signal (z-score),Neu5Ac(a2-6)Gal,-0.071
same,glycan array binding signal (z-score),[35],-0.293
same,glycan array binding signal (z-score),Neu5Ac(a2-6)Gal(b1-4)Glc,0.162
same,glycan array binding signal (z-score),[36],-0.187
same,glycan array binding signal (z-score),[37],-0.289
same,glycan array binding signal (z-score),[38],0.355
same,glycan array binding signal (z-score),[39],0.509
same,glycan array binding signal (z-score),[40],-0.169
same,glycan array binding signal (z-score),[41],-0.471
same,glycan array binding signal (z-score),[42],-0.061
same,glycan array binding signal (z-score),[43],1.38
same,glycan array binding signal (z-score),[44],1.4
same,glycan array binding signal (z-score),[45],-0.014
same,glycan array binding signal (z-score),[46],-0.062
same,glycan array binding signal (z-score),[47],0.51
same,glycan array binding signal (z-score),[48],-0.062
same,glycan array binding signal (z-score),[49],0.794
same,glycan array binding signal (z-score),[50],-0.656

# At a glance, some entries already given.
binder,measurement,setting,value
KILRGVCKKIMRTFLRRISKDILTGKK [NK2 (Sus scrofa)],glycan array binding signal (z-score),[17],0.062
same,glycan array binding signal (z-score),[18],1.75
same,glycan array binding signal (z-score),[19],-0.977
same,glycan array binding signal (z-score),[20],0.6
